This is an account of results in patent publication US20030129186A1.

For this experiment, the target named is p97 receptor on isolated human brain capillaries (human). The experiment in a line: [125I]-p97 ligand binding on 100 µg human brain capillaries, cross-linking, non-reducing SDS-PAGE, autoradiography (FIG. 31).

No constants are given. Whether binding was seen depends on the method and setting. Binding calls can cover weak binding; strength is not graded here.

B1: recombinant human melanotransferrin (p97) (ligand, UniProt P08582 20-709, looked up)
chain: GMEVRWCATSDPEQHKCGNMSEAFREAGIQPSLLCVRGTSADHCVQLIAAQEADAITLDGGAIYEAGKEHGLKPVVGEVYDQEVGTSYYAVAVVRRSSHVTIDTLKGVKSCHTGINRTVGWNVPVGYLVESGRLSVMGCDVLKAVSDYFGGSCVPGAGETSYSESLCRLCRGDSSGEGVCDKSPLERYYDYSGAFRCLAEGAGDVAFVKHSTVLENTDGKTLPSWGQALLSQDFELLCRDGSRADVTEWRQCHLARVPAHAVVVRADTDGGLIFRLLNEGQRLFSHEGSSFQMFSSEAYGQKDLLFKDSTSELVPIATQTYEAWLGHEYLHAMKGLLCDPNRLPPYLRWCVLSTPEIQKCGDMAVAFRRQRLKPEIQCVSAKSPQHCMERIQAEQVDAVTLSGEDIYTAGKTYGLVPAAGEHYAPEDSSNSYYVVAVVRRDSSHAFTLDELRGKRSCHAGFGSPAGWDVPVGALIQRGFIRPKDCDVLTAVSEFFNASCVPVNNPKNYPSSLCALCVGDEQGRNKCVGNSQERYYGYRGAFRCLVENAGDVAFVRHTTVFDNTNGHNSEPWAAELRSEDYELLCPNGARAEVSQFAACNLAQIPPHAVMVRPDTNIFTVYGLLDKAQDLFGDDHNKNGFKMFDSSNYHGQDLLFKDATVRAVPVGEKTTYRGWLGLDYVAALEGMSSQQC
As to B1, the binding entry is “binds”.
